These are yes or no findings as the source states them, for the method shown. In cells and extracts the contact can be indirect. A yes stands for co-enrichment or nearness to the bait. Other partners may have been found. No binding means not detected with the bait.
Legend:
[1] = biological target: CBL-OST (mouse) (UniProt P22682); assay: affinity purification with mass spectrometry; CBL-OST or CBLB-OST captured on Strep-Tactin Sepharose (1.5 h, 4°C) from postnuclear lysates (n-dodecyl-β-maltoside) of short-term expanded mouse CD4+ T cells, unstimulated or 30, 120, 300, 600 s after anti-CD3 + anti-CD4 cross-linking; eluted with 2.5 mM D-biotin; label-free LC-MS/MS against wild-type cells as control
[2] = biological target: CBLB-OST (mouse) (UniProt Q3TTA7); assay: as above

Sequences of proteins named here, by UniProt entry; tags and fusion partners are left off. Residues count along the entry.
UniProt Q64010: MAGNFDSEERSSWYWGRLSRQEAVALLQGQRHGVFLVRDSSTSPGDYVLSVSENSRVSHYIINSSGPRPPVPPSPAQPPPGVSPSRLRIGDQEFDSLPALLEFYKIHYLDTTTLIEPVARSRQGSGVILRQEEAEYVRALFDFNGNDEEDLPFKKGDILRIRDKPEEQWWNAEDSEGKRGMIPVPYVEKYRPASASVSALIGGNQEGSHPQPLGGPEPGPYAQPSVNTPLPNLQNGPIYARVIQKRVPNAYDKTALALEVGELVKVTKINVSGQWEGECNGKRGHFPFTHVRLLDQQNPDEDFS
UniProt P47941: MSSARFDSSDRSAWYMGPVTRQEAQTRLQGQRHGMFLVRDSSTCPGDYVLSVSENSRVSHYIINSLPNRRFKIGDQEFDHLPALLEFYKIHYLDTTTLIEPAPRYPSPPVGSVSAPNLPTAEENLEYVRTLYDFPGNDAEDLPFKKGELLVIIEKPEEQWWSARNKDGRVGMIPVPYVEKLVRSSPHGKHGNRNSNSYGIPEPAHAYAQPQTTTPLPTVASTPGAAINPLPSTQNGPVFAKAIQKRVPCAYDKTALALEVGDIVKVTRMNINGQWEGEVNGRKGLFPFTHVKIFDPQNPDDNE
UniProt P41241: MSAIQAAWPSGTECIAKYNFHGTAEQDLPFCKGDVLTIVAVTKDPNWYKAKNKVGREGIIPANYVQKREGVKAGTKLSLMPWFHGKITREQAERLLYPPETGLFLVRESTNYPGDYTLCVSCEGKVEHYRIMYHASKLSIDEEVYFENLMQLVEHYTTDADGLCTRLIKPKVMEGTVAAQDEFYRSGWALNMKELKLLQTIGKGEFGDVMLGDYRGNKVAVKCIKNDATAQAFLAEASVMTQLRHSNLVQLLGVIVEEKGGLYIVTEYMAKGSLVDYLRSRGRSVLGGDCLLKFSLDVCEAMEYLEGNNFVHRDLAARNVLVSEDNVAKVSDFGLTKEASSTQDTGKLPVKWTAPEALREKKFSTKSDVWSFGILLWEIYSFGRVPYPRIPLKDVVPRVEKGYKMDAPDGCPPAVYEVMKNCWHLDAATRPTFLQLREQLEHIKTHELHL
UniProt Q9CX99: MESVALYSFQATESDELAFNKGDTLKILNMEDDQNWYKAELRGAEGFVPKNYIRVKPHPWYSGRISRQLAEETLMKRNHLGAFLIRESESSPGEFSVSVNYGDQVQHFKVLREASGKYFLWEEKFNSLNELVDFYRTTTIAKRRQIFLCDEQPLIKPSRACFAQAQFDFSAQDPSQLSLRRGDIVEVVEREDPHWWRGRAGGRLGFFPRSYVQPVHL
UniProt Q60631: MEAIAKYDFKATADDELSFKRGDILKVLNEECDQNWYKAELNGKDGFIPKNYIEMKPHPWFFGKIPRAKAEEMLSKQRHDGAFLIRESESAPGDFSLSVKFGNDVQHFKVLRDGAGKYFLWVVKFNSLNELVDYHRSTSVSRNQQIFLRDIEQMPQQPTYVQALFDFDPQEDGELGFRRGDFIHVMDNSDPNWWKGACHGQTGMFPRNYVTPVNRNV
UniProt P11835, residues 24-771: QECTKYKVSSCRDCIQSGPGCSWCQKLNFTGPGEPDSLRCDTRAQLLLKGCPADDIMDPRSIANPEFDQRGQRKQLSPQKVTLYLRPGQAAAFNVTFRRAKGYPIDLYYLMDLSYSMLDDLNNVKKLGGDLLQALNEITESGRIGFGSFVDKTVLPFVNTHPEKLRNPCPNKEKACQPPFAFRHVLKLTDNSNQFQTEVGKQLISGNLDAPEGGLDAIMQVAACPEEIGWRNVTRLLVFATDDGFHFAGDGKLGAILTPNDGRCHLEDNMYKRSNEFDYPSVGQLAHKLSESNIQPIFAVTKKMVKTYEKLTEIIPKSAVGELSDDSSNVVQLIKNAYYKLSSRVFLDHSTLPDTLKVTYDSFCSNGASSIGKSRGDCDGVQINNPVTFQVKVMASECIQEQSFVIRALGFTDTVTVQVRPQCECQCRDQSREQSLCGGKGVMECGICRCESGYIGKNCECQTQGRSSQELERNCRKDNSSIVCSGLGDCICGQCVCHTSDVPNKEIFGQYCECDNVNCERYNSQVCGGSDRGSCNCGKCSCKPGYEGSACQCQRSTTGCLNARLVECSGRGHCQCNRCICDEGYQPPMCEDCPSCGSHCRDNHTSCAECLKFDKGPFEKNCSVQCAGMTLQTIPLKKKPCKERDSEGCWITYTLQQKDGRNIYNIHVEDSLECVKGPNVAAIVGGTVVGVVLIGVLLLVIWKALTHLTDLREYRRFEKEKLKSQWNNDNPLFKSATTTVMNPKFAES
UniProt P06240: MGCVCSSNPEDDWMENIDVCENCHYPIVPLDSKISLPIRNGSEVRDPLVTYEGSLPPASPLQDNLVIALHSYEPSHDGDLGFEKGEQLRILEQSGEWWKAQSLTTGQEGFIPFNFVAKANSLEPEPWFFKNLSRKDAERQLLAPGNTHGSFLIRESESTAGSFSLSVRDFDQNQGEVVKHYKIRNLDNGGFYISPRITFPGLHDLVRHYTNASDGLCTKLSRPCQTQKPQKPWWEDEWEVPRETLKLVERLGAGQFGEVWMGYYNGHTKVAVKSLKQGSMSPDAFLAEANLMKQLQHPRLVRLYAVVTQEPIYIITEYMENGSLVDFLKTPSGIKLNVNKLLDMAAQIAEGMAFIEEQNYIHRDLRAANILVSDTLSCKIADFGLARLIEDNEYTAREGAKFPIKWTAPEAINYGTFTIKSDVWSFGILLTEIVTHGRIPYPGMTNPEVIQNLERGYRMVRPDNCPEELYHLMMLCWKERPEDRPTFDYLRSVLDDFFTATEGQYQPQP
UniProt O55033: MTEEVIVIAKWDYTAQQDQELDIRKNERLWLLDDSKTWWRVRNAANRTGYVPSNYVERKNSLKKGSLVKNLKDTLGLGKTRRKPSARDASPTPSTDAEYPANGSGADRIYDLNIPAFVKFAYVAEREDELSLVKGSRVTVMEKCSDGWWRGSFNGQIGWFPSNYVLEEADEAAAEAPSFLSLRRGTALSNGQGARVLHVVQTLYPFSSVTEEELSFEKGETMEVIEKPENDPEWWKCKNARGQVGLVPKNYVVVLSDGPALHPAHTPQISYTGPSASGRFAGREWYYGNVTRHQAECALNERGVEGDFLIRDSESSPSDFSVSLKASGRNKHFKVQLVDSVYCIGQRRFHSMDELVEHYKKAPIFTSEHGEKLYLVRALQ
UniProt P62962: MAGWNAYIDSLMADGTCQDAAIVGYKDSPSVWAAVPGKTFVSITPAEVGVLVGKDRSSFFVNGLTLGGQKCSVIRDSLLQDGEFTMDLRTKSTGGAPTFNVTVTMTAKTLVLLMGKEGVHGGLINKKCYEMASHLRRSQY
UniProt O08908: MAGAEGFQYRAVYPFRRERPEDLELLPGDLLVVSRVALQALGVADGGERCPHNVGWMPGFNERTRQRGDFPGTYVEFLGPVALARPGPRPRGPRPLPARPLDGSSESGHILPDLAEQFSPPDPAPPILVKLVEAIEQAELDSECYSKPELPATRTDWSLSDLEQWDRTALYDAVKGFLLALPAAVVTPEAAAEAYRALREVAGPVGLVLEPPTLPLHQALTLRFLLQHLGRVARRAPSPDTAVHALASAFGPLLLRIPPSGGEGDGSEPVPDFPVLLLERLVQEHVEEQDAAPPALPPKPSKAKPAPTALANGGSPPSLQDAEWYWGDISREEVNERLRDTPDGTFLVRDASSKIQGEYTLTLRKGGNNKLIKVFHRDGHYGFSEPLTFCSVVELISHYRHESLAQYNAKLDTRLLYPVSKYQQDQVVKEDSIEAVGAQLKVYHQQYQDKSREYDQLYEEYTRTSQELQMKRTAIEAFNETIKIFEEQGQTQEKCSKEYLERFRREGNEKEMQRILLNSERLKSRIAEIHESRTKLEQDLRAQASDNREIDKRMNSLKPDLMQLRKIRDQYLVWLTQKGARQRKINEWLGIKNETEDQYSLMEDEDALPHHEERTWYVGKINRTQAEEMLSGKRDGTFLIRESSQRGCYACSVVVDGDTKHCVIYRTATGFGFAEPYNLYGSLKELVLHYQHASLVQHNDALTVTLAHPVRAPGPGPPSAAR
UniProt Q8R550: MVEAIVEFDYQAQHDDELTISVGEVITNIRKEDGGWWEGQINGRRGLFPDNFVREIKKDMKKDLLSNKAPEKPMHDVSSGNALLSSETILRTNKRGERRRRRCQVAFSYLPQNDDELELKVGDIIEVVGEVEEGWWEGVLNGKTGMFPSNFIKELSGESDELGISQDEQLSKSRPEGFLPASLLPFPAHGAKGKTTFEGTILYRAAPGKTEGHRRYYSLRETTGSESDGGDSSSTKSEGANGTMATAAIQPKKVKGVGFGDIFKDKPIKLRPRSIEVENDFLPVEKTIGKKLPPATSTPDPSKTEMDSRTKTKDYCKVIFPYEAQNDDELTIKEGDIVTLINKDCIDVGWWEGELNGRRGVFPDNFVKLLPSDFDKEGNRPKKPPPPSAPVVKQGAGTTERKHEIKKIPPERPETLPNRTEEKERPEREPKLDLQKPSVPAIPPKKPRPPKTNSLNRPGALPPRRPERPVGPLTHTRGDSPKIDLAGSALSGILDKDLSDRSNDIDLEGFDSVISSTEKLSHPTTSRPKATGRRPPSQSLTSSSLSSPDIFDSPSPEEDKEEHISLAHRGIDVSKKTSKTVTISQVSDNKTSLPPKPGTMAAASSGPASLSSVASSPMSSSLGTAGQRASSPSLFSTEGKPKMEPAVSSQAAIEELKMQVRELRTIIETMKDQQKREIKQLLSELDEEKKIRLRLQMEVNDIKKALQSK
UniProt P43404: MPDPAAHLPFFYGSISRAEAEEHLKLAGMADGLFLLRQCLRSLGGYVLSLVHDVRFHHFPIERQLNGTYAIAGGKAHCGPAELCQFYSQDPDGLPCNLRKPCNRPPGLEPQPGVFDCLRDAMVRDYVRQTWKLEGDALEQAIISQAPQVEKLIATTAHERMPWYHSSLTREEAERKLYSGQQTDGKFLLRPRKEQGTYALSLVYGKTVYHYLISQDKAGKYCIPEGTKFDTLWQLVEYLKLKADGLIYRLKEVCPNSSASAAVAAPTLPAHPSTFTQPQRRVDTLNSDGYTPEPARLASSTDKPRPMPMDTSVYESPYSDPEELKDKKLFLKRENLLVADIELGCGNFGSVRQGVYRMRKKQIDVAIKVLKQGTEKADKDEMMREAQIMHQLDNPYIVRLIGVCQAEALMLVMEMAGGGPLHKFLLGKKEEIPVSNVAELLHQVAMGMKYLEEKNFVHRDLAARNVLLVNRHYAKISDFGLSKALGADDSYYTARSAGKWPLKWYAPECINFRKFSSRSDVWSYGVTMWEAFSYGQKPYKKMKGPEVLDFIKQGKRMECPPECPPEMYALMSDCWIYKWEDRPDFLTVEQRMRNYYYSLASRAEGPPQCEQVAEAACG
UniProt Q8BTI9: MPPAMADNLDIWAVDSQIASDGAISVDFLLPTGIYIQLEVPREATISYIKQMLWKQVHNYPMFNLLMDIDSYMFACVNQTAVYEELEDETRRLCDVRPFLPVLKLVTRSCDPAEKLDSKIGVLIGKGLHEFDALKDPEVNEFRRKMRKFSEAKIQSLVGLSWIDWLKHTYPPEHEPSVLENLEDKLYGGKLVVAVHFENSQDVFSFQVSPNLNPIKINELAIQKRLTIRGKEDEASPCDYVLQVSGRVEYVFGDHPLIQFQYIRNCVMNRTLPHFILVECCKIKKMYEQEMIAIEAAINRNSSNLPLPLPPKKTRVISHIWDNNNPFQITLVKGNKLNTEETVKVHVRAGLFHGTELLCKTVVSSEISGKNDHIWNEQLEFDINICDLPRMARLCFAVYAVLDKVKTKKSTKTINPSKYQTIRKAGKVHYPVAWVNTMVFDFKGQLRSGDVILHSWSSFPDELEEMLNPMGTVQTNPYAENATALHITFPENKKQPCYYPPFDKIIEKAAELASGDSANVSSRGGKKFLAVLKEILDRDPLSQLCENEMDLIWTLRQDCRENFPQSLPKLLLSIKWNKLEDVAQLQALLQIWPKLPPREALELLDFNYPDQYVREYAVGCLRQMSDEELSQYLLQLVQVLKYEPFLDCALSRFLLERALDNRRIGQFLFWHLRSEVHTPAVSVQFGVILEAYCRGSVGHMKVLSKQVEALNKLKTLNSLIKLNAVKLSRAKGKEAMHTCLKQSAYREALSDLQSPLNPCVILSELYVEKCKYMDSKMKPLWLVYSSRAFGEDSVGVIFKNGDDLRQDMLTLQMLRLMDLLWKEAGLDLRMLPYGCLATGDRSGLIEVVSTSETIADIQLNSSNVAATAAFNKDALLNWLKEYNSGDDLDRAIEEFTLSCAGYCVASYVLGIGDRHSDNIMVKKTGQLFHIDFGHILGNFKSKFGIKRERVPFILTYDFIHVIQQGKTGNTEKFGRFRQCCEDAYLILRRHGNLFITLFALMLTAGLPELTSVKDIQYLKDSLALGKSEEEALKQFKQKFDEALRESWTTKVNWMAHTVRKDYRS

Row | binding [1] | binding [2] | Substance
1 | binds |  | ARPC1B (from UniProt Q9WV32 1-372)
2 | binds |  | CAPZA2 (from UniProt P47754 1-286)
3 | binds |  | CBLB (from UniProt Q3TTA7 1-982)
4 | binds |  | CD2AP (from UniProt Q9JLQ0 1-637)
5 |  | binds | CRK (from UniProt Q64010 1-304)
6 |  | binds | CRKL (from UniProt P47941 1-303)
7 | binds | binds | CSK (from UniProt P41241 1-450) (enzyme)
8 | binds | no binding | FYN (from UniProt P39688 1-537) (enzyme)
9 | binds | binds | GRAP (from UniProt Q9CX99 1-217)
10 |  | binds | GRB2 (from UniProt Q60631 1-217)
11 | binds |  | IQGAP1 (from UniProt Q9JKF1 1-1657)
12 | binds |  | ITGB2 (from UniProt P11835 24-771) (receptor)
13 | binds | binds | ITSN2 (from UniProt Q9Z0R6 1-1659)
14 | no binding | no binding | LCK (from UniProt P06240 1-509) (enzyme)
15 |  | binds | NCK2 (from UniProt O55033 1-380)
16 |  | binds | PFN1 (from UniProt P62962 1-140)
17 | binds |  | PIK3CA (from UniProt P42337 1-1068) (enzyme)
18 | binds |  | PIK3R1 (from UniProt P26450 1-724)
19 | binds |  | PIK3R2 (from UniProt O08908 1-722)
20 | binds |  | SH3KBP1 (from UniProt Q8R550 1-709)
21 | binds |  | TUBB4B (from UniProt P68372 1-445)
22 | binds |  | TUBB5 (from UniProt P99024 1-444)
23 | binds |  | UBASH3B (from UniProt Q8BGG7 1-638)
24 | no binding | no binding | ZAP-70 (from UniProt P43404 1-618) (enzyme)
25 | binds |  | catalytic subunit CB of PI3K (from UniProt Q8BTI9 1-1064) (enzyme)
